In patent US20210147525A1 (University of California, published 2021):
Numbering of substitutions follows the chain as printed. Results are given in words; binding and its absence hold for the method and conditions named. A result given as binding can be weak or reduced; the word gives no strength.

B1: 11-G9 (antibody, V domains shown)
VH: EVQLLESGGGLVQPGGSLRLSCAASGFTFPDYAMSWVRQAPGKGLEWVSTIYAGGGRTYYADSVKGRFTISRDNSKNTLYLQMNSLRAEDTAVYYCARGLTRHYGYSFDHWGQGTLVTVSS
VL: DIQMTQSPSSLSASVGDRVTITCRASQTISSYLNWYQQKPGKAPKLLIYSASSLQSGVPSRFSGSGSGTDFTLTISSLQPEDFATYYCQQSYTFPLTFGQGTKVEIK
B2: 11-H8 (antibody, V domains shown)
VH: EVQLLESGGGLVQPGGSLRLSCAASGFTFSNYAMSWVRQAPGKGLEWVSSIYGSGHRTYYADSVKGRFTISRDNSKNTLYLQMNSLRAEDTAVYYCARVASSAEYAFDHWGQGTLVTVSS
VL: B1 VL with T28S, S31N, P40S, S50A, F94V
B3: 1-A1 (antibody, V domains shown)
VH: EVQLLESGGGLVQPGGSLRLSCAASGFTFTSYAMSWVRQAPGKGLEWVSAISAGGGYTYYADSVKGRFTISRDNSKNTLYLQMNSLRAEDTAVYYCARYDYNSYFDSWGQGTLVTVSS
VL: QSTQPPSVSGAPGQRVTISCTGSSSNIGAGYDVHWYQQLPGTAPKLLIYGNNNRPSGVPDRFSGSKSGTSASLAITGLQAEDEADYYCQSYDRSLSGWVFGGGTKLTVL
B4: 1-A5 (antibody, V domains shown)
VH: QVQLVESGGGVVQPGRSLRLSCAASGYAFSSYGMHWVRQAPGKGLEWVAVISHSGSNKYYANSVKGRFTISRDNSKNTLYLQMNSLRAEDTAVYYCARGLAGWEVYPFDVWGQGTLVTVSS
VL: B3 VL with Y31F, G50D, N52T, R93Y, S96R, G97V
B5: 1-H10 (antibody, V domains shown)
VH: EVQLLESGGGLVQPGGSLRLSCAASGFTFSNYAMSWVRQAPGKGLEWVSTISGGGTYYADSVKGRFTISRDNSKNTLYLQMNSLRAEDTAVYYCARSRYWYTKLISYTYGMDVWGQGTLVTVSS
VL: QSVLTQPPSVSGAPGQRVTISCTGSSSNIGATYDVHWYQQLPGTAPKLLIYVNNNRPSGVPDRFSGSKSGTSASLAITGLQAEDEADYYCQSYDSSLRAWVFGGGTKLTVL
B6: 2-B4 (antibody, V domains shown)
VH: QVQLVESGGGVVQPGRSLRLSCAASGFTFSNYGMHWVRQAPGKGLEWVAVISYHGRNEYYADSVKGRFTISRDNSKNTLYLQMNSLRAEDTAVYYCARGDDQDAFDPWGQGTLVTVSS
VL: B1 VL with T28S, S31N, S50A, Y92F, T93S, F94A, L96Y
B7: 2-B5 (antibody, V domains shown)
VH: QVQLVESGGGVVQPGRSLRLSCAASGFIFSDYDMHWVRQAPGKGLEWVAVISHSGSNKYYADSVKGRFTISRDNSKNTLYLQMNSLRAEDTAVYYCARDRSVYLYYGYHYYEGFDVWGQGTLVTVSS
VL: EIVMTQSPATLSVSPGERATLSCRASQSVYNNLAWYQQKPGQAPRLLIYGASTRATGIPARFSGSGSGTEFTLTISSLQSEDFAVYYCQQYNDLPLTFGQGTKVEIK
B8: 2-F7 (antibody, V domains shown)
VH: EVQLLESGGGLVQPGGSLRLSCAASGFTFSDYAMSWVRQAPGKGLEWVSSIYTSGGRTYYADSVKGRFTISRDNSKNTLYLQMNSLRAEDTAVYYCARGYRYFDHWGQGTLVTVSS
VL: B7 VL with Y30R, N92Y, D93T, L94W, L96R
B9: 2-F8 (antibody, V domains shown)
VH: B2 VH with S30P, S50T, S54R, H56E, A100S, S101V, S102V, A103W, E104S, H109Y
VL: B1 VL with T28D, S31T, S50A, T93S, F94Y
B10: 2-H2 (antibody, V domains shown)
VH: B6 VH with N31D, H54E, R56S, D100S, D101E, Q102G, D103S, A104G, P107V
VL: B1 VL with T28R, S31N, S50A, T93S, F94P, L96Y
B11: 2-H9 (antibody, V domains shown)
VH: B2 VH with N31T, H56G, R57K, V99T, A100D, S101Y, A103L, E104Y, A106Q, H109Y
VL: B1 VL with T28S, S31R, S50A, F83L, T93S, F94Y, L96V
B12: 3-C4 (antibody, V domains shown)
VH: EVQLLESGGGLVQPGGSLRLSCAASGFTFSSYAMSWVRQAPGKGLEWVSTIYGGGSYTYYADSVKGRFTISRDNSKNTLYLQMNSLRAEDTAVYYCARAEVDDYWYLYMDVWGQGTLVTVSS
VL: B1 VL with T28D, S30G, S31N, S50A
B13: 3-C6 (antibody, V domains shown)
VH: EVQLLESGGGLVQPGGSLRLSCAASGFTFSTYAMSWVRQAPGKGLEWVSTIYGSGGRTYYADSVKGRFTISRDNSKNTLYLQMNSLRAEDTAVYYCARTDHYSYYVMDYWGQGTLVTVSS
VL: B1 VL with T28S, S31K, F83C, T93S
B14: 3-C8 (antibody, V domains shown)
VH: EVQLLESGGGLVQPGGSLRLSCAASGFTFSDYAMSWVRQAPGKGLEWVSAIYGSGSYTYYADSVKGRFTISRDNSKNTLYLQMNSLRAEDTAVYYCARTAYSYPYVYFDFWGQGTLVTVSS
VL: B1 VL with S30T, S50A, F94Y
B15: 3-C9 (antibody, V domains shown)
VH: EVQLLESGGGLVQPGGSLRLSCAASGFTFGNYAMSWVRQAPGKGLEWVSVISGGGTNTYYADSVKGRFTISRDNSKNTLYLQMNSLRAEDTAVYYCARSDSYYGVYDGYYYGMDVWGQGTLVTVSS
VL: B1 VL with S31R, Y36H, S50A, S91T, T93S, F94T, L96W
B16: 3-C11 (antibody, V domains shown)
VH: EVQLLESGGGLVQPGGSLRLSCAASGFTFSSYAMSWVRQAPGKGLEWVSTIYASGATTYYADSVKGRFTISRDNSKNTLYLQMNSLRAEDTAVYYCARLKLYHAAFDIWGQGTLVTVSS
VL: B1 VL with T28D, S50T, T93S, F94Y
B17: 3-D3 (antibody, V domains shown)
VH: EVQLLESGGGLVQPGGSLRLSCAASGFTFSNYAMSWVRQAPGKGLEWVSTIYESGGYTYYADSVKGRFTISRDNSKNTLYLQMNSLRAEDTAVYYCARVESYGYGEYITYNYYGFDVWGQGTLVTVSS
VL: EIVLTQSPGTLSLSPGERATLSCRASQSVATGYLAWYQQKPGQAPRLLIYGASSRATGIPDRFSGSGSGTDFTLTISRLEPEDFAVYYCQQYESSPPFTFGQGTKVEIK
B18: 3-D6 (antibody, V domains shown)
VH: QVQLVQSGAEVKKPGSSVKVSCKASGGTFTSYGIHWVRQAPGQGLEWMGRIVPILGTTNYAQKFQGRVTITADESTSTAYMELSSLRSEDTAVYYCARDPAVTLDTYVYADHGFDVWGQGTLVTVSS
VL: B7 VL with L94W
B19: 3-E7 (antibody, V domains shown)
VH: EVQLLESGGGLVQPGGSLRLSCAASGFTFSNYAMSWVRQAPGKGLEWVSGISASGGGTYYADSVKGRFTISRDNSKNTLYLQMNSLRAEDTAVYYCARSSRYGDTFDVWGQGTLVTVSS
VL: B7 VL with Q27L, Y30G, N31S, D93N
B20: 3-E9 (antibody, V domains shown)
VH: EVQLLESGGGLVQPGGSLRLSCAASGFTFRSYAMSWVRQAPGKGLEWVSTIYGTGEDTYYADSVKGRFTISRDNSKNTLYLQMNSLRAEDTAVYYCARDYFWSPRGSIYDYDYFDVWGQGTLVTVSS
VL: B1 VL with T28S, S31R, S91Y, Y92F, T93S, F94A, L96Y
B21: 3-G4 (antibody, V domains shown)
VH: EVQLLESGGGLVQPGGSLRLSCAASGFTFSTYAMSWVRQAPGKGLEWVSGISAGGGARTYYADSVKGRFTISRDNSKNTLYLQMNSLRAEDTAVYYCARVHHFGYYSLDVWGQGTLVTVSS
VL: B1 VL with S31N, S50A, F94Y
B22: 3-G5 (antibody, V domains shown)
VH: EVQLLESGGGLVQPGGSLRLSCAASGFTFSSYAMSWVRQAPGKGLEWVSVIYGSGGRTYYADSVKGRFTISRDNSKNTLYLQMNSLRAEDTAVYYCARHDPRYQLDVWGQGTLVTVSS
VL: B1 VL with T28S, S30G, S50T, F94Y
B23: 3-G6 (antibody, V domains shown)
VH: QVQLVESGGGVVQPGRSLRLSCAASGFTFSDYGMHWVRQAPGKGLEWVAVISYDGSRKYYANSVKGRFTISRDNSKNTLYLQMNSLRAEDTAVYYCARGSYSDGFDVWGQGTLVTVSS
VL: B1 VL with T28S, S31R, P40T, S50G, T93S, F94T, L96Y
B24: 3-G7 (antibody, V domains shown)
VH: QVQLVQSGAEVKKPGSSVKVSCKASGGTFSTEYISWVRQAPGQGLEWMGRIIPVLGITNYAQKFQGRVTITADESTSTAYMELSSLRSEDTAVYYCARHLGPPYLVTYSHGFDVWGQGTLVTVSS
VL: B7 VL with V29L, Y30G, N31T, N92Y, D93E, L94A, L96P
B25: 3-G8 (antibody, V domains shown)
VH: EVQLLESGGGLVQPGGSLRLSCAASGFTFSNYAMSWVRQAPGKGLEWVSAIYGSGGKTYYADSVKGRFTISRDNSKNTLYLQMNSLRAEDTAVYYCARLKYGFYQFDYWGQGTLVTVSS
VL: B1 VL with T28S, S30R, S31N, Q37E, S50A, T93S, F94Y

These binders were tested against human PLXDC1 protein, biotinylated (bait of the antibody library screen) (human) (assay: antibody library screen on biotinylated PLXDC1 with activating compound).
In the case of B1, the binding is reported as “binds”.
In the case of B2, the binding is reported as “binds”.
B3 was tested, and the binding was “binds”.
With B4 the binding was “binds”.
With B5 the binding was “binds”.
For B6, the binding was “binds”.
B7 was tested, and the binding was “binds”.
B8 was tested, and the binding was “binds”.
With B9 the binding was “binds”.
For B10, the binding was “binds”.
In the case of B11, the binding is reported as “binds”.
For B12, the binding was “binds”.
B13 was tested, and the binding was “binds”.
For B14, the binding was “binds”.
With B15 the binding was “binds”.
In the case of B16, the binding is reported as “binds”.
With B17 the binding was “binds”.
In the case of B18, the binding is reported as “binds”.
In the case of B19, the binding is reported as “binds”.
B20 was tested, and the binding was “binds”.
B21 was tested, and the binding was “binds”.
With B22 the binding was “binds”.
For B23, the binding was “binds”.
With B24 the binding was “binds”.
In the case of B25, the binding is reported as “binds”.
